Measurements reported in PubChem BioAssay AID1224830 (NIAID, 2016).

Test: 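Regulators of TLR4 signalling towards TNF-alpha in macrophage-like cells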 (primary screen)
System: human THP-1 monocytic leukaemia cells, TNF dual-luciferase reporter clone, PMA-differentiated to macrophage-like cells
Reagent: siRNA pool against human genes, 50 nM
Duration: LPS for 4 h, given about 3 days after siRNA transfection
Treatment: bacterial LPS (TLR4 ligand), 10 ng/ml
Read-out: 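TNF firefly reporter luminescence divided by renilla, normalised to the plate median, then turned into a robust z-score for each replicate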
Scale: TNF reporter robust z-score: higher = stronger TNF reporter response to LPS
Rule for the call: 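a well is active when its z-score exceeds 2.8 or falls below -1.5; control wells carry no call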
This is an unselected part of about 18,000 reagents tested. Over the whole deposit, about 2,900 (16%) are marked active. 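Calls are made per well; low scores hint the gene aids the LPS response, high scores that it dampens it.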 A number with no mark means an inactive call. Repeated entries: four replicate wells of each siRNA pool.

Gene | TNF reporter robust z-score
MRPS5 | -0.65
MRPS5 | 0.04
MRPS5 | -0.27
MRPS5 | 0.12
TK1 | 0.53
TK1 | 0.89
TK1 | 0.79
TK1 | 1.56
CHRNB2 | -0.19
CHRNB2 | 0.67
CHRNB2 | 1.95
CHRNB2 | 2.84 (active)
INMT | -0.47
INMT | -0.62
INMT | -0.87
INMT | -0.99
NRK | -0.53
NRK | -1.04
NRK | 0.58
NRK | -0.25
CLIC4 | 0.35
CLIC4 | 0.54
CLIC4 | 0.16
CLIC4 | -0.44
LCN8 | -2.31 (active)
LCN8 | -1.69 (active)
LCN8 | -2.07 (active)
LCN8 | -1.86 (active)
SPATA17 | 1.81
SPATA17 | 2.5
SPATA17 | 1.26
SPATA17 | 1.45
BAALC | 0.29
BAALC | -0.43
BAALC | -0.93
BAALC | -1.17
TCOF1 | -1.49
TCOF1 | -1.48
TCOF1 | -1.23
TCOF1 | -1.5
FAM161B | 0.58
FAM161B | 0.38
FAM161B | -0.45
FAM161B | 0.02
ASB16-AS1 | -0.13
ASB16-AS1 | 0.6
ASB16-AS1 | 0.85
ASB16-AS1 | 0.47
ERVW-1 | 1.18
ERVW-1 | 1.96
ERVW-1 | 0.57
ERVW-1 | 1.63
BBS12 | -0.53
BBS12 | 0.81
BBS12 | -0.19
BBS12 | -0.24
CA5A | 0.17
CA5A | 1.34
CA5A | 0.45
CA5A | 0.61
SPANXN2 | 0.96
SPANXN2 | 1.23
SPANXN2 | -0.01
SPANXN2 | 0.55
OGFR | -0.35
OGFR | 0.09
OGFR | -0.36
OGFR | 1.08
POLR1H | -0.65
POLR1H | -0.81
POLR1H | -0.55
POLR1H | -0.02
LANCL1 | -0.26
LANCL1 | 0
LANCL1 | -0.32
LANCL1 | -0.05
ZNF562 | -0.33
ZNF562 | 1.35
ZNF562 | 1.32
ZNF562 | 0.39
TDRD6 | 0.36
TDRD6 | 0.83
TDRD6 | -0.31
TDRD6 | -0.48
DDX31 | 0.58
DDX31 | 0.63
DDX31 | 0.48
DDX31 | 0.99
ASXL2 | 0.25
ASXL2 | 0.35
ASXL2 | 0.12
ASXL2 | 0.2
ZNF577 | 1.25
ZNF577 | 0.27
ZNF577 | 0.09
ZNF577 | -0.06
VPS37D | -0.25
VPS37D | 1.88
VPS37D | -0.78
VPS37D | 0.26
MPND | -0.63
MPND | -0.3
MPND | -0.48
KCNE2 | -0.86
KCNE2 | -1.03
KCNE2 | -0.46
KCNE2 | 1.72
RBP7 | -0.22
RBP7 | -0.81
RBP7 | -0.89
RBP7 | -0.07
FFAR1 | 2.44
FFAR1 | -0.52
FFAR1 | -1.21
FFAR1 | -0.53
MME | -0.3
MME | -1.08
MME | -1.2
MME | -0.71
FKBP4 | 0.09
FKBP4 | -0.18
FKBP4 | -0.01
FKBP4 | -0.08
A2ML1 | -0.5
A2ML1 | 0.62
A2ML1 | -0.75
A2ML1 | 0.24
NAF1 | -0.82
NAF1 | -0.45
NAF1 | -0.54
NAF1 | -0.47
NACC2 | -0.06
NACC2 | -0.58
NACC2 | -0.28
NACC2 | -0.3
UBA2 | -0.64
UBA2 | 1.22
UBA2 | 0.16
UBA2 | 1.03
SPIB | -0.26
SPIB | -0.5
SPIB | -0.16
SPIB | -0.21

Reformatted: results already given
A2ML1
- TNF reporter robust z-score: -0.5

A2ML1
- TNF reporter robust z-score: 0.62

A2ML1
- TNF reporter robust z-score: -0.75

A2ML1
- TNF reporter robust z-score: 0.24

NAF1
- TNF reporter robust z-score: -0.82

NAF1
- TNF reporter robust z-score: -0.45

NAF1
- TNF reporter robust z-score: -0.54

NAF1
- TNF reporter robust z-score: -0.47

NACC2
- TNF reporter robust z-score: -0.06

NACC2
- TNF reporter robust z-score: -0.58

NACC2
- TNF reporter robust z-score: -0.28
